Assay results taken from patent US20100292436 (published 2010).

Assay: general procedure: Fmoc solid-phase peptide synthesis; Wang resin; DIC or TBTU with HOBt; Fmoc-Arg(Pbf)-OH via pentafluorophenol ester (DIC, HATU)
Settings: whole synthesis

D-Phe-Pro-Arg-Pro-Gly-Gly-Gly-Gly-Asn-Gly-Asp-Phe-Glu-Glu-Ile-Pro-Glu-Glu-Tyr-Leu
crude purity (method not given) (run 1): 85%
crude purity (method not given) (run 2): 87%
